The source of these data is article PMC4117762.

By UniProt entry, the sequences of proteins in these tests, tags left out. Where a name states a change or a piece, a line headed by the entry shows the natural chain unless it says otherwise. Residues count along the entry.
UniProt Q04206: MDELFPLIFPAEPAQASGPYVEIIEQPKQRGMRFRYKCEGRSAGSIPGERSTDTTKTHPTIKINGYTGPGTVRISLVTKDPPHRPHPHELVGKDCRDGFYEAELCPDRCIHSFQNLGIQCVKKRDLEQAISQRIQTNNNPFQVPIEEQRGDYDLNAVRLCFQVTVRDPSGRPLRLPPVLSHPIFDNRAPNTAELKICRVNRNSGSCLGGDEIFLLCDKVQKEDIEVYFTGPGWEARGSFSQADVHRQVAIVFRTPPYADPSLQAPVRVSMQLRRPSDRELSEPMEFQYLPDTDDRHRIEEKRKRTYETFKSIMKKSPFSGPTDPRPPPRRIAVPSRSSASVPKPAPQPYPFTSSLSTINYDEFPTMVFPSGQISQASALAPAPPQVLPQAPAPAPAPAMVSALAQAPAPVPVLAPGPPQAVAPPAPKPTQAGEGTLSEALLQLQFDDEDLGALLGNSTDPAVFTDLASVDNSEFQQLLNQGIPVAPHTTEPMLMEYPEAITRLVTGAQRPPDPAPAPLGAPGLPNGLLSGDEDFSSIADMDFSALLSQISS
GST-RelA (1–431): residues 1-431 of Q04206
UniProt Q96LA8: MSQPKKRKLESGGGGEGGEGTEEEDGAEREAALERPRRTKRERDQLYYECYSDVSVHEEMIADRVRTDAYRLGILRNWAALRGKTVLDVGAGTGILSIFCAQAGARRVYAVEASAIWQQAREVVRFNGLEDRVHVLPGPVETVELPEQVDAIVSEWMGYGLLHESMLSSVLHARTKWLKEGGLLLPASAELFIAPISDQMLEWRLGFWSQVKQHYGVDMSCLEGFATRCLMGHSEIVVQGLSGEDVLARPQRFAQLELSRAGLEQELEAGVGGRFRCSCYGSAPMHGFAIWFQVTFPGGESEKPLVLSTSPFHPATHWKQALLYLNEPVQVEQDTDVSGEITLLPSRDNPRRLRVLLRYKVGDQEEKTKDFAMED
UniProt Q6NZB1: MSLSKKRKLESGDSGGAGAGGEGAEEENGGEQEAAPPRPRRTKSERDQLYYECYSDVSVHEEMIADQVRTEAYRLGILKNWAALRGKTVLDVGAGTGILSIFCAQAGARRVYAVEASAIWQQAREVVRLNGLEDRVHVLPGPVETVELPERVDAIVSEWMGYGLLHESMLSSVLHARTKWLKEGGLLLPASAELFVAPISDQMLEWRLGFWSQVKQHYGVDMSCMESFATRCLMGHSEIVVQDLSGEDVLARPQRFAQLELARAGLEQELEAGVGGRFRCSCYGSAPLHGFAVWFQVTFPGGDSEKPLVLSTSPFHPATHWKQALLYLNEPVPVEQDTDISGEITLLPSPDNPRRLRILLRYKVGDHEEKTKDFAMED
UniProt Q04207: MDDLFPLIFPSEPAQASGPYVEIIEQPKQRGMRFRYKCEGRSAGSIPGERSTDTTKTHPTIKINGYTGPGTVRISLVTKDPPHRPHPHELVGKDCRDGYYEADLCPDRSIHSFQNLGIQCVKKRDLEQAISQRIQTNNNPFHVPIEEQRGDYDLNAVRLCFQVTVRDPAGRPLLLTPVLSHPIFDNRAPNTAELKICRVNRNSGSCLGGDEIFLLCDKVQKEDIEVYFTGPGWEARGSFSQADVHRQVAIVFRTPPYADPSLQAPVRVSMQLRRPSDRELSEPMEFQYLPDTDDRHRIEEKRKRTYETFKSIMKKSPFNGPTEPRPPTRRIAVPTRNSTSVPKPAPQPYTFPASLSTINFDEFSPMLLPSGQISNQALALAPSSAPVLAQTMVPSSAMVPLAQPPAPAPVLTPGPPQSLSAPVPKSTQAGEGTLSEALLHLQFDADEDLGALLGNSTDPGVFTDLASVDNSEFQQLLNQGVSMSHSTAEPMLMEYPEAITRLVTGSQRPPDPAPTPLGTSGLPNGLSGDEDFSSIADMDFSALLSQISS

These are yes or no findings as the source states them, for the method shown. For part of these data: Binding seen in cells or lysates may run through a third protein. Some entries that bind do so weakly or less than the wild type. For part of these data: Tags and fused reporters may be left off the sequences shown.

Test [1] addresses GST-RelA (1–431) (UniProt Q04206). The experiment in a line: pull-down; 10 μg of eluted GST fusion protein and His-PRMT6 incubated in co-IP buffer (50 mM Tris-HCl pH 7.5, 150 mM NaCl, 0.1% NP-40, 5 mM EDTA, 5 mM EGTA, 15 mM MgCl2) overnight at 4 °C; pulled down with glutathione beads 2 h at 4°C; WB αHis; both purified.
Test [2] addresses T1, GFP-CARM1 (UniProt Q86X55).
T1 sequence: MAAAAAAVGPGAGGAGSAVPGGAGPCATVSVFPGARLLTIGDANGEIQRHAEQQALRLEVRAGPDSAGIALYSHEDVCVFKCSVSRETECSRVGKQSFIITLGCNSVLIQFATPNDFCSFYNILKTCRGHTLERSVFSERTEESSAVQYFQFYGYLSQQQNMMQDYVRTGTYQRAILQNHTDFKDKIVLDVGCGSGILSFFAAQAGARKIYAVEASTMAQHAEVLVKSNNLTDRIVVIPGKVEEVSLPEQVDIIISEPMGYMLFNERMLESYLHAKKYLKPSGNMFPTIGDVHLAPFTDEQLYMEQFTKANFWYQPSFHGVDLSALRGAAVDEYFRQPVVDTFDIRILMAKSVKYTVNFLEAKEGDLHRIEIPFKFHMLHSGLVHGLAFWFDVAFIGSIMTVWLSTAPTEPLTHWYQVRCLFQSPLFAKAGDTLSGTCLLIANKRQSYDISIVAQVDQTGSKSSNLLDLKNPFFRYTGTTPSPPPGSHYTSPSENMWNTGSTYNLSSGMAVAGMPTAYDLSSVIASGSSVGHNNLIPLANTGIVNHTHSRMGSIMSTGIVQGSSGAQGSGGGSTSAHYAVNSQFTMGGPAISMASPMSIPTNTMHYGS
The experiment in a line: co-IP; HEK 293 transiently transfected with GFP, GFP-CARM1 or GFP-PRMT6 along with pCDNA-RelA for 48 h, TNF-α 30 min; IP with αGFP or αIgG, WB αRelA.

Test [3] concerns the target GFP-PRMT6 (UniProt Q96LA8). Described as above.
In test [4] the target is Flag-PRMT6 (not fused to ER*) (human) (UniProt Q96LA8). In words: co-IP; HEK 293 transiently transfected with Flag-PRMT6 (not fused to ER*); co-IP (Supplementary Figure S3B).
Test [5] has as its target PRMT6, endogenous in HEK 293 cells (human (endogenous in HEK 293)) (UniProt Q96LA8). In words: co-IP; HEK 293 at 90% confluency, endogenous proteins; lysate in co-IP buffer incubated with αIgG or αPRMT6 overnight, then protein A/G agarose; WB αRelA.
The target of test [6] is PRMT6, endogenous in mouse embryonic fibroblasts (mouse (endogenous in MEFs)) (UniProt Q6NZB1). In words: co-IP; immortalized WT and PRMT6-KO MEFs at 90% confluency, endogenous proteins; lysate in co-IP buffer incubated with αPRMT6 overnight, then protein A/G agarose; WB αRelA.

As for “His-PRMT6 (from UniProt Q96LA8 1-375) (enzyme)”, the binding entry in test [1] is “binds”. For the substance “RelA expressed from a pCDNA-RelA vector (from UniProt Q04206 1-551)”, the binding entry in test [2] and in test [3] was “binds” throughout. For the substance “RelA subunit of NF-κB, endogenous in HEK 293 cells (from UniProt Q04206 1-551)”, the binding entry in test [4] and in test [5] was “binds” in each case. For “RelA subunit of NF-κB, endogenous in mouse embryonic fibroblasts (from UniProt Q04207 1-549)”, the binding result in test [6] is “binds”.
